The first data set deals with Vero normal cell line. As to the kind of experiment: MTT cell viability assay on normal Vero cells (selectivity). It is filed as cell-based. Conditions: SI (Selectivity index) = IC50 on Vero cells/IC50 on Caco-2 (Table 3). Here is the method:
MCF-7 cells (Human breast adenocarcinoma), HepG2 (human hepatocellular carcinoma), A549 (human lung adenocarcinoma), Caco-2 (colon carcinoma), PANC-1 (human pancreatic cancer), and Vero cells (derived from normal kidney cells) were supplied by (Holding Company for Biological Products and Vaccines VACSERA; Giza, Egypt).
The effect of parent compounds and their derivatives were assessed by (3-(4,5-dimethylthiazol-2-yl)-2,5diphenyl-tetrazolium bromide) MTT assay. […] After a merged sheet of cells developed, the growth media was decanted from the 96-well microtiter and refilled with different concentrations of compounds (µg/mL), and the plate was incubated at 37 °C for 48 h to minimize exposure to the dissolving agent (Supporting Information).
MTT solution (BIO BASIC CANADA INC) was prepared [5 mg/mL in phosphate buffered saline (PBS)], added to each well and incubated for 4 h, then after removing the media, 200 μL of DMSO was added to each well to solubilize the formazan crystals and the optical density of the formazan product was measured at 560 nm using microplate reader (mindray, MR-96A). The results were calculated as the mean of the three independent experiments. […]
Determination of sample cytotoxicity on cells (MTT protocol) […]
well) and incubated at 37°C for 24 hours to develop a complete monolayer sheet.
2- Growth medium was decanted from 96 well micro titer plates after confluent sheet of cells were formed, cell monolayer was washed twice with wash media.
3- two-fold dilutions of tested sample was made in RPMI medium with 2% serum […]
4- 0.1 ml of each dilution was tested in different wells leaving 3 wells as control, receiving only maintenance medium.
5- Plate was incubated at 37°C and examined. Cells were checked for any physical signs of toxicity, e.g. partial or complete loss of the monolayer, rounding, shrinkage, […]
6- MTT solution was prepared (5mg/ml in PBS) (BIO BASIC CANADA INC).
8- 20ul MTT solution were added to each well. Place on a shaking table, 150rpm for 5 minutes, to thoroughly mix the MTT into the media.
10) Dump off the media. (dry plate on paper towels to remove residue if necessary. […]
(In general: Tetrazolium dyes change colour on reduction, which living cells bring about.)
As to `O=C(/C=C/c1ccc(O)c(O)c1)N1CCN(c2ccccc2)CC1` [Compound 3, (E)-3-(3,4-Dihydroxyphenyl)-1-(4-phenylpiperazin-1-yl)prop-2-en-1-one], the “SI Vero” value came to 0.087.

For `O=C(/C=C/c1ccc(O)c(O)c1)Nc1ccc(O)cc1` [Compound 4, (E)-3-(3,4-Dihydroxyphenyl)-N-(4-hydroxyphenyl)acrylamide], the “SI Vero” value is 0.094.

As to `O=C(/C=C/c1ccc(O)c(O)c1)NC1CCCCC1` [Compound 6, (E)-N-Cyclohexyl-3-(3,4-dihydroxyphenyl)acrylamide], the “SI Vero” value is on record as 0.083. The same measure, in the same setting: then `O=C(/C=C/c1ccc(O)c(O)c1)Nc1ccc(Br)cc1` [Compound 7, (E)-N-(4-Bromophenyl)-3-(3,4-dihydroxyphenyl)acrylamide], with 0.99. With `COc1ccc(NC(=O)/C=C/c2ccc(O)c(O)c2)cc1` [Compound 8, (E)-N-(4-Methoxyphenyl)-3-(3,4-dihydroxyphenyl)acrylamide], the “SI Vero” value was determined as 0.14.

As for `Nc1ccccc1NC(=O)/C=C/c1ccc(O)c(O)c1` [Compound 11, (E)-N-(2-Aminophenyl)-3-(3,4-dihydroxyphenyl)acrylamide], the “SI Vero” value came to 0.13. On to `COc1ccc(/C=C/C(=O)N2CCN(c3ccccc3)CC2)cc1O` [Compound 12, (E)-3-(3-Hydroxy-4-methoxyphenyl)-1-(4-phenylpiperazin-1-yl)prop-2-en-1-one], for which the “SI Vero” value is given as 0.048. On to `COc1ccc(NC(=O)/C=C/c2ccc(OC)c(O)c2)cc1` [Compound 13, (E)-3-(3-Hydroxy-4-methoxyphenyl)-N-(4-methoxyphenyl)acrylamide], for which the “SI Vero” value is 0.089. Take `COc1cc(/C=C/C(=O)NC2CCCCC2)ccc1O` [Compound 15, (E)-N-Cyclohexyl-3-(4-hydroxy-3-methoxyphenyl)acrylamide]: the “SI Vero” value is 0.13. Take `COc1ccc(NC(=O)/C=C/c2ccc(O)c(OC)c2)cc1` [Compound 16, (E)-3-(4-Hydroxy-3-methoxyphenyl)-N-(4-methoxyphenyl)acrylamide]: the “SI Vero” value was found to be 0.13. Same read-out and setting: then `COc1ccc(/C=C/C(=O)NCc2ccccc2)cc1O` [Compound 18, (E)-N-Benzyl-3-(3-hydroxy-4-methoxyphenyl) acrylamide], with 0.15. Consider `COc1cc(/C=C/C(=O)Nc2ccc(Cl)cc2)ccc1O` [Compound 19, (E)-N-(4-Chlorophenyl)-3-(4-hydroxy-3-methoxyphenyl)acrylamide], for which the “SI Vero” value turned out to be 0.077. Turning to `COc1ccc(/C=C/C(=O)Nc2ccccc2N)cc1O` [Compound 20, (E)-N-(2-Aminophenyl)-3-(3-hydroxy-4-methoxyphenyl)acrylamide], the “SI Vero” value was 0.082.

Staying with this data set, now noted: SI (Selectivity index) = IC50 on Vero cells/IC50 on cancer cells (Table 2).
As for `COc1cccc2c1C(=O)c1c(O)c3c(c(O)c1C2=O)C[C@@](O)(C(=O)CO)C[C@@H]3O[C@H]1C[C@H](N)[C@H](O)[C@H](C)O1` [Doxorubicin], the “SI Vero” value is 0.04.

(Values after publication PMC9571594, “Development of Semisynthetic Apoptosis-Inducing Agents Based on Natural Phenolic Acids Scaffold: Design, Synthesis and In-Vitro Biological Evaluation” (Molecules, 2022).)
